# Assay results taken from PubChem BioAssay AID1487 (National Center for Advancing Translational Sciences (NCATS), 2009).
# The other results are listed elsewhere or left out. These are further read-outs of the screen, such as a control signal, another cell line or another target. No call is given for them. The list favours compounds with an active or inconclusive main result. Words in brackets tell the shape of the fitted curve; partial curves, single points and poor fits give uncertain potencies.
# Experiment: qHTS Assay for Modulators of Lamin A Splicing
# Details: HeLa LMNA splicing GFP/RFP minigene ratio, 48 h
# Summary of the method: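 Read-out is the ratio of GFP to DsRed2 object intensity, acquired by 488 nm laser-scanning cytometry on HeLa lamin A-EGFP minigene reporter cells. Compound incubation 48 hrs at 37 °C in Opti-MEM with 2% FBS; DMSO 0.5% final.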
# [1] = measured here: GFP splicing reporter channel
# [2] = measured here: RFP viability control channel
SMILES,AC50 [1],AC50 [2]
C=CCc1c(C)c(C#N)c2nc3ccccc3n2c1NCCN(C)C,"11.2 µM [rising, single point]","12.6 µM [rising, single point]"
CCOc1ccc(NC(=O)CN(c2cc(C)cc(C)c2)S(=O)(=O)c2c(C)noc2C)cc1,–,"10 µM [rising, partial curve, poor fit]"
Cc1csc(=Nc2ccc(S(=O)(=O)N3CCOCC3)cc2)n1Cc1ccco1,"12.6 µM [rising, partial curve]","25.1 µM [rising, single point]"
CC(Oc1ccccc1F)C(=O)Nc1ccc2ccccc2c1 (stereo not drawn),–,"8.91 µM [rising, partial curve]"
CCc1nn(CCCN2CCN(c3cccc(Cl)c3)CC2)c(=O)n1CCOc1ccccc1,"3.55 µM [falling, partial curve]","0.112 µM [falling, partial curve, poor fit]"
Cc1c(Cl)cccc1NC(=O)CSc1nc(=O)n(Cc2ccncc2)c2c1CCC2,–,"31.6 µM [rising, single point]"
Cc1ccc2c(c1)/C(=N/N1C(=O)c3ccccc3C1=O)C(=O)N2,–,"12.6 µM [rising, partial curve]"
O=C(CCNc1cccc(F)c1)c1cccc([N+](=O)[O-])c1,"17.8 µM [falling, partial curve, poor fit]","22.4 µM [falling, partial curve, poor fit]"
CN(C(=O)c1ccc(OC2CCN(S(=O)(=O)N(C)C)CC2)cc1)C1CCCCC1,"0.447 µM [falling, full curve, poor fit]","0.0891 µM [falling, full curve, poor fit]"
CCc1nc(C)cn1S(=O)(=O)c1ccc([N+](=O)[O-])cc1,–,"3.16 µM [rising, partial curve, poor fit]"
COc1ccc(C(=O)NCc2ccc3c(c2)CCN3C(C)=O)cc1OC,–,"0.0794 µM [falling, full curve, poor fit]"
C/C(=N/OCO/N=C(/C)c1ccc(F)cc1)c1ccc(F)cc1,–,"10 µM [rising, partial curve, poor fit]"
COCC(C)N=C1NN=C(c2c[nH]c3ccccc23)CS1 (stereo not drawn),"0.00631 µM [falling, full curve, poor fit]","0.00447 µM [falling, full curve, poor fit]"
C/C(=N\NC(=O)c1cc(-c2cccnc2)nc2ccccc12)c1ccccc1O,–,"3.98 µM [rising, full curve]"
COC(=O)c1sc(NC(=O)c2ccc(Cn3cc(Cl)cn3)o2)c(C#N)c1C,–,"15.8 µM [rising, single point]"
CCCCOc1ccc(OCCNS(=O)(=O)N(C)C)cc1,–,"15.8 µM [rising, single point]"
COc1ccc(-c2ccc(SCC(=O)N3c4ccccc4CC3C)nn2)cc1OC (stereo not drawn),–,"14.1 µM [rising, partial curve]"
Cc1ccc(OCCN2C(=O)C(=O)c3cc(C)ccc32)cc1,–,"0.0251 µM [rising, full curve, poor fit]"
CC1=CC(=O)OC1Cc1ccncc1 (stereo not drawn),–,"5.62 µM [falling, single point]"
COC(=O)CC/C(=N/Nc1ccc(Cl)c(Cl)c1)C(=O)OC,"0.501 µM [falling, full curve, poor fit]",–
Cn1c(=O)[nH]c(=O)c2c1nc(N1CCCC1)n2CCCSc1nnnn1-c1ccccc1,–,"2.24 µM [falling, partial curve, poor fit]"
CCN(Cc1ccccc1)c1ccc(/C=N/NS(=O)(=O)c2ccc(C)c([N+](=O)[O-])c2)cc1,–,"35.5 µM [rising, partial curve]"
C=CCN(c1ccccc1)S(=O)(=O)c1ccc2c(c1)oc(=O)n2C,–,"6.31 µM [rising, single point]"
CC(C)CN(C#N)c1nc(N2CCOCC2)nc(N2CCOCC2)n1,–,"12.6 µM [rising, single point]"
Cc1ccc(-n2ncc(C(=O)NCc3ccc4c(c3)OCO4)c2C2CCN(C(=O)OC(C)(C)C)CC2)cc1C,"0.0501 µM [falling, full curve, poor fit]",–
COc1ccc(CN2CCCN(CC(=O)Nc3ccc(Br)cc3F)S2(=O)=O)cc1,"17.8 µM [falling, partial curve]","7.94 µM [falling, full curve, poor fit]"
N#C/C(=C/c1cn(CC(=O)O)c2ccccc12)C(=O)Nc1ccccc1,"0.0224 µM [rising, full curve, poor fit]",–
O=C(Nc1ccc2ccccc2c1)/C(=C/c1cccc(Br)c1)NC(=O)c1ccco1,"10 µM [rising, partial curve, poor fit]","20 µM [rising, partial curve, poor fit]"

# 2 entries from above, as tab-separated lines:
SMILES	AC50 [1]	AC50 [2]
CCCCOc1ccc(OCCNS(=O)(=O)N(C)C)cc1	–	15.8 µM [rising, single point]
COC(=O)CC/C(=N/Nc1ccc(Cl)c(Cl)c1)C(=O)OC	0.501 µM [falling, full curve, poor fit]	–

# Remaining list, next part

SMILES,AC50 [1],AC50 [2]
COc1cccc(/C=N/NC(=O)CNC(=O)c2ccc3c(c2)OCCO3)c1O,–,"31.6 µM [rising, single point]"
CC(C)c1cccc(C(C)C)c1NC(=O)CNCc1ccccc1F,"31.6 µM [rising, single point]",–
COC(=O)C1=NNC2(c3ccc(C)cc3)C(=O)N(c3ccc(C)cc3)C(=O)C12 (stereo not drawn),"35.5 µM [falling, single point]","17.8 µM [falling, single point]"
Cc1cccc2sc(N(Cc3cccnc3)C(=O)CCS(=O)(=O)c3ccccc3)nc12,–,"0.0708 µM [falling, full curve, poor fit]"
COc1ccc(-c2cc(C(F)(F)F)nc(S(C)(=O)=O)n2)cc1OC,"5.62 µM [falling, full curve]","5.01 µM [falling, full curve]"
CCCCn1c(CN2CCN(C(=O)OCC)CC2)nc2c1c(=O)n(C)c(=O)n2C,–,"0.501 µM [rising, full curve, poor fit]"
NC(=S)NN=C1C2CC3CC(C2)CC1C3,"0.891 µM [rising, partial curve]",–
Cc1ccccc1OCCOc1cccc(/C=N/NC(=O)Cc2nnc(N)s2)c1,"11.2 µM [rising, single point]","31.6 µM [rising, single point]"
O=C(NC(=S)Nc1ccc(N2CCCCC2)cc1)c1ccc2c(c1)OCCO2,"3.16 µM [rising, full curve]","5.62 µM [rising, partial curve]"
Cc1ccc(NC(=O)Cc2ccc3c(c2)CCCC3)cc1C,–,"14.1 µM [rising, partial curve]"
CCOc1ccc(NC(=O)c2ccc3c(c2)N(Cc2ccc(F)cc2)C(=O)CS3=O)cc1 (stereo not drawn),–,"35.5 µM [rising, single point]"
Cc1cccc(-c2nc(SCc3cc(=O)c4cccc(F)c4[nH]3)n[nH]2)c1,"0.562 µM [rising, single point]",–
CCN(CC)c1ccc(C(=O)Nc2cccc(F)c2)cc1,–,"12.6 µM [rising, single point]"
COC(=O)c1cccc(NC(=O)CCc2cc(OC)c(OC)c(OC)c2)c1,"5.01 µM [rising, partial curve]","15.8 µM [rising, single point]"
CCc1ccccc1NC(=O)CN(C)C(=O)CSc1nc2cc(Cl)ccc2s1,"5.01 µM [rising, partial curve]","12.6 µM [rising, partial curve]"
O=C(NCCS(=O)(=O)N1CCN(c2ccccc2F)CC1)c1ccccc1C(F)(F)F,"2.51 µM [falling, partial curve, poor fit]","0.00447 µM [falling, full curve, poor fit]"
COc1ccccc1Cc1nc(-c2ccc(C)cc2)no1,"11.2 µM [rising, single point]","15.8 µM [rising, single point]"
O=C(N/N=C/C=C/c1cccc([N+](=O)[O-])c1)C(O)c1ccccc1 (stereo not drawn),"31.6 µM [rising, single point]",–
O=C1COc2ccc(C(=O)/C=C/c3ccccc3)cc2N1,"7.08 µM [falling, partial curve, poor fit]","4.47 µM [falling, full curve, poor fit]"
CCOC(=O)c1c(NC(=S)NC)sc2c1CC(C)(C)SC2,–,"35.5 µM [rising, single point]"
CCOc1ccc(-c2nnn(CC(=O)c3ccc4c(c3)OCCO4)n2)cc1OCC,–,"31.6 µM [rising, partial curve]"
CCCCOP(=O)(c1ccc(N(C)C)cc1)C(O)c1ccccc1F (stereo not drawn),"35.5 µM [rising, single point]","15.8 µM [rising, single point]"
CCOCCCNC(=O)/C(C#N)=C/c1cc(C)c(O)c(C)c1,–,"20 µM [rising, partial curve, poor fit]"
COc1ccc(OC)c(/C=N\NC(=O)CSc2nnc(CCCc3ccc(OC)c(C)c3)o2)c1,–,"35.5 µM [rising, single point]"
CC(C)CC(CO)N1CCN(C(=O)c2ccc(C(C)(C)C)cc2)CCC1=O (stereo not drawn),"0.02 µM [falling, full curve, poor fit]",–
CC(C)(C)CC(C)(C)NC(=S)NC1CCN(Cc2ccccc2)CC1,–,"35.5 µM [rising, single point]"
CC(C)CC(=O)Nc1nnc(S(=O)(=O)N(C)c2ccc(Cl)cc2)s1,"0.0631 µM [rising, full curve, poor fit]",–
